# Test results published in the supplement of paper PMC11006884.
# Chains of the proteins cited; added tags and fusions are not shown. Lines headed by an entry give the natural chain unless they say otherwise; changes in a name come on top.
# UniProt Q86U38: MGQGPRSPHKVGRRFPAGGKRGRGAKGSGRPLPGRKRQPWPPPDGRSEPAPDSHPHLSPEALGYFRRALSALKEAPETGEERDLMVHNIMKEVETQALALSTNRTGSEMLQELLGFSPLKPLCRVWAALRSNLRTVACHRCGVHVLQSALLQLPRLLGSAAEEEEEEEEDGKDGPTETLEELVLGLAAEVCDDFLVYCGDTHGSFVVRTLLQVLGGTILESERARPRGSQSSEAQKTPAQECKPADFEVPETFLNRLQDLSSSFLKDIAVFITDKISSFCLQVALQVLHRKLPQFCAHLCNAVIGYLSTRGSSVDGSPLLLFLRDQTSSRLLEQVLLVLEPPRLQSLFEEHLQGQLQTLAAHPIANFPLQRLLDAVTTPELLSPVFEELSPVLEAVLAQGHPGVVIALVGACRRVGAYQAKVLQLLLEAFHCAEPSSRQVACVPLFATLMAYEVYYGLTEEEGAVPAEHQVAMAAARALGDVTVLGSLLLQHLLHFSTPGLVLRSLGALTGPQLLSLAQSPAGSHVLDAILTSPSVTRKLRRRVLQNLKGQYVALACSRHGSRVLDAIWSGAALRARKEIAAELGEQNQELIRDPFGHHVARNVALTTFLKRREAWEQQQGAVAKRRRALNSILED
# UniProt Q7Z5K2: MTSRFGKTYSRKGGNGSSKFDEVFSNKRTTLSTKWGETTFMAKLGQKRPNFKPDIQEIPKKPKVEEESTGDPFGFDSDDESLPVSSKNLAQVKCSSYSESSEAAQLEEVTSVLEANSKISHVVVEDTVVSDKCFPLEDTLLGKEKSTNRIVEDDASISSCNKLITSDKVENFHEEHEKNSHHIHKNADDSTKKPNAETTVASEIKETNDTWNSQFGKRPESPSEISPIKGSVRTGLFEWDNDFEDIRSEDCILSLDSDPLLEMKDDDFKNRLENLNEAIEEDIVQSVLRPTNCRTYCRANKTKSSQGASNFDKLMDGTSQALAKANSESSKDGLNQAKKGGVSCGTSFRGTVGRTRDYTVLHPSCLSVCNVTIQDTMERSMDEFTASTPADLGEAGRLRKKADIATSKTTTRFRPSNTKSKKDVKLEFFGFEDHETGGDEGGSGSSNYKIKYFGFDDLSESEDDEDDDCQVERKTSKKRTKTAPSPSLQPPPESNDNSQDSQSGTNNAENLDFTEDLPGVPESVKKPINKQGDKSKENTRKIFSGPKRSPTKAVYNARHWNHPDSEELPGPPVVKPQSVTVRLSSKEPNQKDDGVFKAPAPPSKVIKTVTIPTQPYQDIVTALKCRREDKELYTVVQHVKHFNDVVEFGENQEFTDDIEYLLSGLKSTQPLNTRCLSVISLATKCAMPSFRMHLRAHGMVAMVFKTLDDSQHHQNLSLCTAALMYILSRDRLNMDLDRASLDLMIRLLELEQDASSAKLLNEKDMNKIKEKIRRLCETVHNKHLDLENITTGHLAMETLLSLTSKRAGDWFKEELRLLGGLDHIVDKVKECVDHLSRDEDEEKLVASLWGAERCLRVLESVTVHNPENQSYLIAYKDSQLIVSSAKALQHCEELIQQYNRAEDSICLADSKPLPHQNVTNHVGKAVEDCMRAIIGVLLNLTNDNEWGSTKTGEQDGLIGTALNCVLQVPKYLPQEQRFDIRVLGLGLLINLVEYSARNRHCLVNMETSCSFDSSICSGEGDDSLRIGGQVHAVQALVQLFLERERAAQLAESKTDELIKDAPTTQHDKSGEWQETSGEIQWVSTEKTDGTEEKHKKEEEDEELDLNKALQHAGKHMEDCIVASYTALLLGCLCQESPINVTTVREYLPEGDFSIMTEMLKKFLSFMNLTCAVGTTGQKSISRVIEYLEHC
# UniProt Q7L2E3: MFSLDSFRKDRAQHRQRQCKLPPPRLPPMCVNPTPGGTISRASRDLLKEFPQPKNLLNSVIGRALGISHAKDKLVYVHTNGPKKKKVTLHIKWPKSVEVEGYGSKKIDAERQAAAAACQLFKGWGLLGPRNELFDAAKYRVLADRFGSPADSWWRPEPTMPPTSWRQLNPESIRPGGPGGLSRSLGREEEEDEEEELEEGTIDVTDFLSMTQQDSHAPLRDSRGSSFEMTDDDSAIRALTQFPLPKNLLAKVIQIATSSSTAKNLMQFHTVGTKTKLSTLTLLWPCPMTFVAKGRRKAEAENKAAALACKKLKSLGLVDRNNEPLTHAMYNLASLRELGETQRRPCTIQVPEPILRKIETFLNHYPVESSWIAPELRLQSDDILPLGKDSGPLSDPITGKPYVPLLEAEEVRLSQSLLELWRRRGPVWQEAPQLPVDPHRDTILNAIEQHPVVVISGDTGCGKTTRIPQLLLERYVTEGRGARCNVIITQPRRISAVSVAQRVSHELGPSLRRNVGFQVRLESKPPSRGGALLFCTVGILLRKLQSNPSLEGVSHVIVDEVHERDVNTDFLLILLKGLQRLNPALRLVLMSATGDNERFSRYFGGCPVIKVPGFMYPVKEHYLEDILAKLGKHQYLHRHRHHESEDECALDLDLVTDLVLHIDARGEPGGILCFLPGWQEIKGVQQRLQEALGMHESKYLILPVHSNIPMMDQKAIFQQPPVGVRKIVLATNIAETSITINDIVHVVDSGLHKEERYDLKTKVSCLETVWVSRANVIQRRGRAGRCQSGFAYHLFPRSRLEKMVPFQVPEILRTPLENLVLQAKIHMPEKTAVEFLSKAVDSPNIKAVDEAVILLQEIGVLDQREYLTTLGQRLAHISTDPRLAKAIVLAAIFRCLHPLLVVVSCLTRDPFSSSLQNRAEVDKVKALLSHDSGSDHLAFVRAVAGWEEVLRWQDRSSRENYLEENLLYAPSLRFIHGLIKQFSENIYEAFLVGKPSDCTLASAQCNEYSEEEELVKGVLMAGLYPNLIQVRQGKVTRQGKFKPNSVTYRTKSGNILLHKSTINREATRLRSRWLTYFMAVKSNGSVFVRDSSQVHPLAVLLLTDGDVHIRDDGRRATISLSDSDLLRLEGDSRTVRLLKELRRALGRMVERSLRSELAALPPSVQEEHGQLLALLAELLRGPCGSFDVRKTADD
# UniProt Q86UA6: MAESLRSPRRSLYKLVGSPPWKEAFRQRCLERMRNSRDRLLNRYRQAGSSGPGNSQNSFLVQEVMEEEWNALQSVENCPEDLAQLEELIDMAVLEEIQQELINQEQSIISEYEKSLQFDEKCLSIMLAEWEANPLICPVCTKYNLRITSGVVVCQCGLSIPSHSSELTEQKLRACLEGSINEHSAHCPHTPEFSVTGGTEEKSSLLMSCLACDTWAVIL
# UniProt Q8IX18: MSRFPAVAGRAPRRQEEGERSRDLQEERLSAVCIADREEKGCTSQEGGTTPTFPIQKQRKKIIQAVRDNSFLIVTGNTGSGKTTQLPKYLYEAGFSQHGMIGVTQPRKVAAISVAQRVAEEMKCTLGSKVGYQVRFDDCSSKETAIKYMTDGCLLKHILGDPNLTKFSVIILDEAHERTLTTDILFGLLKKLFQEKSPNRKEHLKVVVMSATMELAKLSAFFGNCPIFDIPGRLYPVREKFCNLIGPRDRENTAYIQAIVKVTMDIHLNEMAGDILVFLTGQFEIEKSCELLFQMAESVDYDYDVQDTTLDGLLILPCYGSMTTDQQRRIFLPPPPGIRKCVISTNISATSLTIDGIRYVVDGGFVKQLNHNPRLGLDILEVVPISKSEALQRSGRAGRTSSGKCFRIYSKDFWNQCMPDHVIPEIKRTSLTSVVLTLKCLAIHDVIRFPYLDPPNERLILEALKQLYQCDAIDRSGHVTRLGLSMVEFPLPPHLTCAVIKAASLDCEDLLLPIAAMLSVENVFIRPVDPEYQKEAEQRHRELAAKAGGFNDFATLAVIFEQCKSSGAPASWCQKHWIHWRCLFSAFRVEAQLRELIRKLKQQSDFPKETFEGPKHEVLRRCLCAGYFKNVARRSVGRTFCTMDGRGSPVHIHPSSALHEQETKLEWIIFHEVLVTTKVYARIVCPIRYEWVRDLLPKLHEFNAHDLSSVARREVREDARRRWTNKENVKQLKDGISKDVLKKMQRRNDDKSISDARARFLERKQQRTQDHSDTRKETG
# UniProt Q8IU81: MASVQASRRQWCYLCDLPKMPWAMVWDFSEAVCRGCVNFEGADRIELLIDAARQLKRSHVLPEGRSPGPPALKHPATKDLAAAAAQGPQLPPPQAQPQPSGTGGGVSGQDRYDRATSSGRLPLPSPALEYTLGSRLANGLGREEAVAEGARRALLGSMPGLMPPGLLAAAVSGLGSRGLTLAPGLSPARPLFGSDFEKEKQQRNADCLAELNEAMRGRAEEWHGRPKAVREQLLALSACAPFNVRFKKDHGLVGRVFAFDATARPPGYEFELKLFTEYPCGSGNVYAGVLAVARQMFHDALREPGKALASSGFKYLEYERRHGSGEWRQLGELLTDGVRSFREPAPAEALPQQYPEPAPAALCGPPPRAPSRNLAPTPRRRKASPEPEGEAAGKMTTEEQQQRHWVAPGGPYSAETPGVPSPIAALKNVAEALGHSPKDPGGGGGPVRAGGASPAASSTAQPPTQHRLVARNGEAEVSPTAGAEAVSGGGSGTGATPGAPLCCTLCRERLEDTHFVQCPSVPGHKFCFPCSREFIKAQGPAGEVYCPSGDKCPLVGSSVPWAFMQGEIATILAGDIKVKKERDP
# UniProt Q71F23: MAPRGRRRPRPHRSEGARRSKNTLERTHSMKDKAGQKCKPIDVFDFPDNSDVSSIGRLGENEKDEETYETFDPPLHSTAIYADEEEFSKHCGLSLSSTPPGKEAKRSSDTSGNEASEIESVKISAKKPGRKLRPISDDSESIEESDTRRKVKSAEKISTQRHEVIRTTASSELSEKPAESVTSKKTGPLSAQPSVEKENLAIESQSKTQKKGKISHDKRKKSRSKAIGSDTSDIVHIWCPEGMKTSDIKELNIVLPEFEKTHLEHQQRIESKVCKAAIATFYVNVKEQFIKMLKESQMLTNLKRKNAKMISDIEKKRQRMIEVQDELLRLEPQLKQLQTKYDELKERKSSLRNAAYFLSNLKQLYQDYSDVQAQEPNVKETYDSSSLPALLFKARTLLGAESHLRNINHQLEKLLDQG
# UniProt Q7RTV0, whole entry, looked up: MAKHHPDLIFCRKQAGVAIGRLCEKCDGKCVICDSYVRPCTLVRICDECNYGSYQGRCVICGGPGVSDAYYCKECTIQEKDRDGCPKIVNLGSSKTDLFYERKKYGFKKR
# UniProt Q7Z3K3: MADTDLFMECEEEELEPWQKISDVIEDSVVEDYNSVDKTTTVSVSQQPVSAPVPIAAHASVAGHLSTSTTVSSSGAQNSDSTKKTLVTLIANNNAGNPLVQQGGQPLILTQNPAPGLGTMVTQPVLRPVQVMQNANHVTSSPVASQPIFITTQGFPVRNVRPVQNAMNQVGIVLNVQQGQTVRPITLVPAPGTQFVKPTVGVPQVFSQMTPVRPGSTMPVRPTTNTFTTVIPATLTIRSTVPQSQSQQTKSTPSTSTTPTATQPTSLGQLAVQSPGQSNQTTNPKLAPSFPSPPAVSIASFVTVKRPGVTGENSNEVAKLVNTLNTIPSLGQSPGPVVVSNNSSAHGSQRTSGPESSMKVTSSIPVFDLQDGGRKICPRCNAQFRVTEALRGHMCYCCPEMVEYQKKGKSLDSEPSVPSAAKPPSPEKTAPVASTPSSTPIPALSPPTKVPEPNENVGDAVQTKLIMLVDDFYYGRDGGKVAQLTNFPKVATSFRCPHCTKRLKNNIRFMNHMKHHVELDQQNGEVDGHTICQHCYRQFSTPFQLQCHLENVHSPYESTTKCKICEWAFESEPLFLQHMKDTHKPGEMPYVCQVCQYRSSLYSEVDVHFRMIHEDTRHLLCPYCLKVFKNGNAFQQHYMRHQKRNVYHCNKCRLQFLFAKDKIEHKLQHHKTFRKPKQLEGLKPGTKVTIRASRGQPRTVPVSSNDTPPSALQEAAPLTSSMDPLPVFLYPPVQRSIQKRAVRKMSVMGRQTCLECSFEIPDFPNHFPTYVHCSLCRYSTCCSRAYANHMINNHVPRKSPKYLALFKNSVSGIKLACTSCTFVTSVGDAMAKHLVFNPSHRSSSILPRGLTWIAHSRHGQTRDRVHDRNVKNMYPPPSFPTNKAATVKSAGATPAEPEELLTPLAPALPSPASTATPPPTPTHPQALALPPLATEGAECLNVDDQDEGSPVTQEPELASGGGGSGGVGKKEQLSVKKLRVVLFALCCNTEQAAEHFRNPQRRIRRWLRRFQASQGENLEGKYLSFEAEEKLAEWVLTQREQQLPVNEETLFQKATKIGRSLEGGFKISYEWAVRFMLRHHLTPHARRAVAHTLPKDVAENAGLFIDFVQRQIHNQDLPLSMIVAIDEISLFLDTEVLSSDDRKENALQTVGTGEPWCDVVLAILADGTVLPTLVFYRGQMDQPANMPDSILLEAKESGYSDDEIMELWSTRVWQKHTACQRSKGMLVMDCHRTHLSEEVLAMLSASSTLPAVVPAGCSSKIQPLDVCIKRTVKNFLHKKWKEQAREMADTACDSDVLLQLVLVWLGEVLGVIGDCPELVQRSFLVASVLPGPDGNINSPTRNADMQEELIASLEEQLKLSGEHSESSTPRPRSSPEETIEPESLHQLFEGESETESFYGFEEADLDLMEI
# The entries are a selection whose mix differs from that of the whole data set.
# Compound: COC(=O)C#Cc1ccccc1 [methyl 3-phenylpropiolate]
# Experiment: log2 ratio of iodoacetamide-alkyne labeling of the cysteine site, DMSO over compound (competition); higher = stronger covalent engagement of the cysteine by the compound, active = 1 or more
# Conditions: 500 µM; treatment time 1 h; system: HEK293T cell lysate
# Summary of the method: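 After 1 h at ambient temperature with vehicle or electrophile (500 µM), HEK293T lysate (2 mg/mL) was labelled for 1 h with iodoacetamide alkyne and clicked to sCIP-TMT reagents. Pooled samples were trypsin-digested overnight at 37 °C, streptavidin-enriched, acid-eluted and analysed by Orbitrap Eclipse LC-MS/MS with FAIMS, then quantified in FragPipe over three replicates with duplicate channels. A cysteine's log2 competition ratio is its mean control-channel over mean compound-channel reporter intensity. Cysteines quantified in only one replicate were not included.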
row,Target,log2 ratio of iodoacetamide-alkyne labeling
1,UniProt Q7L0Y3_C78,inactive: 0.17
2,UniProt Q86U38_C123,inactive: 0.313
3,UniProt Q7Z5K2_C251,inactive: 0.11
4,HUWE1 C3259 (UniProt Q7Z6Z7),inactive: 0.586
5,UniProt Q86YS7_C831,inactive: 0.37
6,IRF2BP2 C19 (UniProt Q7Z5L9),inactive: 0.113
7,DHX30 C673 (UniProt Q7L2E3),inactive: -0.387
8,CAND1 C954 (UniProt Q86VP6),inactive: 0.0799
9,DHX30 C286 (UniProt Q7L2E3),inactive: 0.0941
10,ZC3HC1 C429 (UniProt Q86WB0),inactive: 0.297
11,UniProt Q7Z2T5_C239,active: 1.28
12,MEPCE C54 (UniProt Q7L2J0),inactive: 0.279
13,PHC2 C740 (UniProt Q8IXK0),inactive: 0.351
14,UniProt Q7Z2T5_C656,inactive: 0.305
15,UniProt Q86Y56_C365,inactive: 0.103
16,RPAIN C175 (UniProt Q86UA6),inactive: -0.0658
17,CENPV C240 (UniProt Q7Z7K6),inactive: -0.145
18,DHX40 C42 (UniProt Q8IX18),inactive: 0.355
19,IRF2BP1 C280 (UniProt Q8IU81),inactive: 0.219

row,Target,log2 ratio of iodoacetamide-alkyne labeling
1,SRRM1 C33 (UniProt Q8IYB3),inactive: 0.135
2,SND1 C228 (UniProt Q7KZF4),inactive: 0.17
3,UniProt Q71F23_C38,inactive: 0.418
4,NET1 C522 (UniProt Q7Z628),inactive: 0.439
5,SLFN11 C760 (UniProt Q7Z7L1),inactive: 0.419
6,CCDC117 C81 (UniProt Q8IWD4),active: 1.66
7,SUPT6H C1198 (UniProt Q7KZ85),inactive: -0.0405
8,NUP54 C180 (UniProt Q7Z3B4),inactive: 0.361
9,ANKLE2 C350 (UniProt Q86XL3),inactive: 0.000798
10,UniProt Q7RTV0_C61,inactive: 0.11
11,DIS3L2 C216 (UniProt Q8IYB7),inactive: 0.561
12,CYFIP1 C1088 (UniProt Q7L576),inactive: -0.14
13,FTSJ3 C577 (UniProt Q8IY81),inactive: 0.308
14,KIF21A C299 (UniProt Q7Z4S6),inactive: 0.303
15,POGZ C1267 (UniProt Q7Z3K3),inactive: 0.673
16,UniProt Q8IX90_C290,inactive: -0.0728
17,SND1 C31 (UniProt Q7KZF4),inactive: 0.0343
18,UniProt Q7Z2Z2_C646,inactive: 0.404

# Part of the list above in another layout:
row | Target | log2 ratio of iodoacetamide-alkyne labeling
6 | IRF2BP2 C19 (UniProt Q7Z5L9) | inactive: 0.113
7 | DHX30 C673 (UniProt Q7L2E3) | inactive: -0.387
